Test: urinary excretion of thiamine metabolites TMA and PMA and TMA/PMA ratio (LC-MS/MS of urine)

For `Cc1ncsc1CCO` [TMA], the “Increase in the ratio of TMA/PMA” value (early stages of thiamine deficiency (FIG. 4)) was greater than 150 fold and the “Increase in the ratio of the thiazole and pyrimidine metabolites” value (urine, when empty calories are consumed) was “more than 100 fold”.

— patent publication US20130102624A1 (priority 2011, published 2013)
